According to article PMC7550539:
These are yes or no findings as the source states them, for the method shown. In cells and extracts the contact can be indirect. Some entries that bind do so weakly or less than the wild type.

Chains of the proteins cited; added tags and fusions are not shown. Lines headed by an entry give the natural chain unless they say otherwise; changes in a name come on top.
UniProt Q09472: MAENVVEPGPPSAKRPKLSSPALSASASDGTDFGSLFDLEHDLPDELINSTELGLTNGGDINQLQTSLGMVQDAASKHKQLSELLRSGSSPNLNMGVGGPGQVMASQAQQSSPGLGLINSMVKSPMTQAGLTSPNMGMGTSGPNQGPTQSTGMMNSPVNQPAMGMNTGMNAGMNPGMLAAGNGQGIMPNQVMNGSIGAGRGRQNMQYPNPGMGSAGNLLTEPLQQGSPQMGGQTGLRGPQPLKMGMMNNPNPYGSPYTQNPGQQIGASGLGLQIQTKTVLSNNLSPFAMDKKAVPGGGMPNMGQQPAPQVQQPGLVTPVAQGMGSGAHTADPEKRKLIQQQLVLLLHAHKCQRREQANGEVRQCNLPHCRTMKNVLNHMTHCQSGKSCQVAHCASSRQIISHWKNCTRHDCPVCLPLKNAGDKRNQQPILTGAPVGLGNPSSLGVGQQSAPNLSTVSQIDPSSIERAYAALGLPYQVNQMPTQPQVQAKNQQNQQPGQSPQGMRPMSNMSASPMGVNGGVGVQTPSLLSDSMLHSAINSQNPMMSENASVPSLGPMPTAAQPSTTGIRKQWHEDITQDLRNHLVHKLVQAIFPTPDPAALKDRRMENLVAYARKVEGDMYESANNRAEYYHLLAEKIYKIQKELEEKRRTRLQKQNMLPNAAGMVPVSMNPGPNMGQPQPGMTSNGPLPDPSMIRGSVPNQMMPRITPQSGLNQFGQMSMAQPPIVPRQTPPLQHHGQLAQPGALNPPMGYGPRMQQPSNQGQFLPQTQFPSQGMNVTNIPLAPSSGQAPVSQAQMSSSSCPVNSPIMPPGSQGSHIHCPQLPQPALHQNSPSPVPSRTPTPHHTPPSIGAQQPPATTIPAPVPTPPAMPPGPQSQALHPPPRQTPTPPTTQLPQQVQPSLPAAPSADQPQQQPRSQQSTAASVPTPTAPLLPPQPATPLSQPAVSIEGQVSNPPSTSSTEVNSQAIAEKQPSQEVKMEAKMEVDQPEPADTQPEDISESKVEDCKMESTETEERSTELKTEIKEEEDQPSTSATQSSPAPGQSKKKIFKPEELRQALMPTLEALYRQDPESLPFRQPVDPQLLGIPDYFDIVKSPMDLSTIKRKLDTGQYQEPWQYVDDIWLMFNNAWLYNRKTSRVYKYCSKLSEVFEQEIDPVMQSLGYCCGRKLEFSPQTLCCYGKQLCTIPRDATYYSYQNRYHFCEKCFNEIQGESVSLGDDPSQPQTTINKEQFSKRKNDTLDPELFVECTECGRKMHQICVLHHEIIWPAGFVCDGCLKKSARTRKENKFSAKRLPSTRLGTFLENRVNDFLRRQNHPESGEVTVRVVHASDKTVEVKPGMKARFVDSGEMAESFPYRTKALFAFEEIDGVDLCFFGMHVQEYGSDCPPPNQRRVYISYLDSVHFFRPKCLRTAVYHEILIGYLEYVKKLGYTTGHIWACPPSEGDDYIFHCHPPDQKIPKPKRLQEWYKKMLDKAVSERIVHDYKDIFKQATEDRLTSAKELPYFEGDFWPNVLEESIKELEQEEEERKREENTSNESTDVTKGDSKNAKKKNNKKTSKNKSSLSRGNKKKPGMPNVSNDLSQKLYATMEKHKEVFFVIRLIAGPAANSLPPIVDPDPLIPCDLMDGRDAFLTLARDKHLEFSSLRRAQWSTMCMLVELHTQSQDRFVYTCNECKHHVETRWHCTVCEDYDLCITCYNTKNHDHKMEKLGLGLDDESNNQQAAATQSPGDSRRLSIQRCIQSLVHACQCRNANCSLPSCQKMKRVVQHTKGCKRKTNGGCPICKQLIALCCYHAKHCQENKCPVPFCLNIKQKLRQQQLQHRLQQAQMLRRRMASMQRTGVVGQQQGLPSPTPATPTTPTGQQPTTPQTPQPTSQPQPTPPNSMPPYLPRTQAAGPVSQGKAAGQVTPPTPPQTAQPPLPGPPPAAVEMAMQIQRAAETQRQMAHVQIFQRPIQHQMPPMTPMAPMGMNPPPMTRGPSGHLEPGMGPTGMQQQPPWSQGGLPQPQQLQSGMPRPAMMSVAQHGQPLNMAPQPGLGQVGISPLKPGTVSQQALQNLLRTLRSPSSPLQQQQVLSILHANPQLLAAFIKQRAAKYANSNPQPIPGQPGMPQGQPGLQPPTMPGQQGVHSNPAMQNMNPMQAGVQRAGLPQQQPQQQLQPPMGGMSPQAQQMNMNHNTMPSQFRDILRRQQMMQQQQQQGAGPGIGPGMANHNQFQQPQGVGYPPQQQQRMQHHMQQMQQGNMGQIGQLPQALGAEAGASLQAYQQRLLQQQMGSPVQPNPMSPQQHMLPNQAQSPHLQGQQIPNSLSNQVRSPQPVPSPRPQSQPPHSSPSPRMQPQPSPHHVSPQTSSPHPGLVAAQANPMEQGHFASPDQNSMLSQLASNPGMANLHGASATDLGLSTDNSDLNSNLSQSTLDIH

Molecular target: E1A binding protein p300 (p300) (UniProt Q09472)
Test: co-IP; Jurkat cells overexpressing CTCF and p300; RIPA lysis buffer; 2 ug anti-CTCF or anti-p300 antibody overnight at 4°C; protein A/G PLUS-agarose beads 2 h at 4°C; Western blotting with anti-CTCF and anti-p300

binding: binds
B1: CCCTC-binding factor (CTCF) (protein, UniProt P49711 1-727)
chain: MEGDAVEAIVEESETFIKGKERKTYQRRREGGQEEDACHLPQNQTDGGEVVQDVNSSVQMVMMEQLDPTLLQMKTEVMEGTVAPEAEAAVDDTQIITLQVVNMEEQPINIGELQLVQVPVPVTVPVATTSVEELQGAYENEVSKEGLAESEPMICHTLPLPEGFQVVKVGANGEVETLEQGELPPQEDPSWQKDPDYQPPAKKTKKTKKSKLRYTEEGKDVDVSVYDFEEEQQEGLLSEVNAEKVVGNMKPPKPTKIKKKGVKKTFQCELCSYTCPRRSNLDRHMKSHTDERPHKCHLCGRAFRTVTLLRNHLNTHTGTRPHKCPDCDMAFVTSGELVRHRRYKHTHEKPFKCSMCDYASVEVSKLKRHIRSHTGERPFQCSLCSYASRDTYKLKRHMRTHSGEKPYECYICHARFTQSGTMKMHILQKHTENVAKFHCPHCDTVIARKSDLGVHLRKQHSYIEQGKKCRYCDAVFHERYALIQHQKSHKNEKRFKCDQCDYACRQERHMIMHKRTHTGEKPYACSHCDKTFRQKQLLDMHFKRYHDPNFVPAAFVCSKCGKTFTRRNTMARHADNCAGPDGVEGENGGETKKSKRGRKRKMRSKKEDSSDSENAEPDLDDNEDEEEPAVEIEPEPEPQPVTPAPPPAKKRRGRPPGRTNQPKQNQPTAIIQVEDQNTGAIENIIVEVKKEPDAEPAEGEEEEAQPAATDAPNGDLTPEMILSMMDR
